The other results are listed elsewhere or left out.

The target in the assay is T1, OsSMF1 (Oryza sativa, UniProt Q6ZLB0 1-436).
T1 sequence: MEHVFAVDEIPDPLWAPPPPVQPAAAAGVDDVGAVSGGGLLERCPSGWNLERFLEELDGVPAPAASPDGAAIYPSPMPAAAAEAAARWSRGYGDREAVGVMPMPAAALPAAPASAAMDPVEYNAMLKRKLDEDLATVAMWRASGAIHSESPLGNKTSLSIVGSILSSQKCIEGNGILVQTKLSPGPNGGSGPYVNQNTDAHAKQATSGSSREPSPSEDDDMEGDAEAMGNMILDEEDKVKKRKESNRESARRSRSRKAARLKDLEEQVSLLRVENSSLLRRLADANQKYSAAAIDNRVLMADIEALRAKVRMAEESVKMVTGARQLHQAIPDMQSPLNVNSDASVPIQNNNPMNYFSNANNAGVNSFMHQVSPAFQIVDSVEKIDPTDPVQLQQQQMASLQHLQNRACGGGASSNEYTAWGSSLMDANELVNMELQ
As to the kind of experiment: protein-binding microarray (RPBM); PBS, 2% BSA, 51.3 ng/ul salmon testes DNA, 50 uM zinc acetate, 200 nM TF, 25 C, 1 h; high values mean tight binding. The following applies: protein: recombinant; tags: N-terminal polyhistidine and DsRed monomer fusion (pET32a); chain copies: 2; label: CyDye5-dUTP incorporated in the synthesized complementary strand; 3' TTTTT single-stranded linker to array surface; dsDNA, one strand shown. In outline:
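In PBS with 2% BSA, salmon testes DNA and 50 µM zinc acetate, 200 nM protein was incubated on a custom Agilent array at 25 °C for 1 h and then washed off. The array had been made double-stranded by primer extension with Cy5-dUTP and blocked with 2% BSA. The proteins were transcription factors fused N-terminally to polyhistidine and DsRed, expressed in E. coli BL21-CodonPlus and purified on Ni–NTA. The binding signal is per-feature fluorescence intensity (arbitrary units) from an Axon 4000B scanner.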
With “TATCATCGCCACCACTAGCTTGTCGTCGTGGCATTGGATTCGGAGTCACCTAGTGCAG”, the binding signal was 4970 fluorescence intensity (a.u.).
With “TTTTACGTAAAATGAGATGGTATTACGTATGATTAATTGACGGAGTCACCTAGTGCAG”, the binding signal was 3520 fluorescence intensity (a.u.).
Regarding “CTTGGCTGTTCCAGCAAGTCATCAATAATCATATCGTCGTCGGAGTCACCTAGTGCAG”, the binding signal was 3520 fluorescence intensity (a.u.).
With “AAAGTGAACAGGCCCCTAGCGTAGATGTCGGGTGGGATGGCGGAGTCACCTAGTGCAG”, the binding signal is 3310 fluorescence intensity (a.u.).
“ATAGAAACATAGCGTGACACAACATAACAAACCAATGCAACGGAGTCACCTAGTGCAG”: the binding signal is 4630 fluorescence intensity (a.u.).
Next, “TCGTAGGGTGCGGGGTGGCTGCCTGTCTCCTTCGCCTCGCCGGAGTCACCTAGTGCAG”: 3310 fluorescence intensity (a.u.); “GGCGCGCTGGCATCCGCCACGGGCCTCGACCGCCTCGTCGCGGAGTCACCTAGTGCAG”: 4530 fluorescence intensity (a.u.).
Take “AGGACAACACCTACGTCTACATGTGCGGCCTCAAGGGCATCGGAGTCACCTAGTGCAG”: the binding signal is 3470 fluorescence intensity (a.u.).
The figure for “GGCAGTTTTGCCAGTTGTTGATTGGACCACGTGGCTTGACCGGAGTCACCTAGTGCAG” is 7670 fluorescence intensity (a.u.); for “CGAGTCCATAAGGGAGTACGTCGCCGAGGCGGCGCGCCGGCGGAGTCACCTAGTGCAG” it is 23000 fluorescence intensity (a.u.).
In the case of “GCAACTTCCATTGACTGGGAATCAGGTTGCATAGTAGCAGCGGAGTCACCTAGTGCAG”, the binding signal was 3360 fluorescence intensity (a.u.).
The figure for “GCAGAAGCTGGCAAATAATCAATCGTCAGCAACAGGTAGACGGAGTCACCTAGTGCAG” is 4330 fluorescence intensity (a.u.); for “GCCCTGTTCCCTGCAGAGAATCATTATATACTCCCTCCAACGGAGTCACCTAGTGCAG” it is 48100 fluorescence intensity (a.u.).
The figure for “CTTGACTTGTAACCCCTAAGCATCTTTTCTCATCAGGGTCCGGAGTCACCTAGTGCAG” is 5290 fluorescence intensity (a.u.); for “GTCTAGCGATCTAGTTGCTGATTTACTGGCCTCTTTACTCCGGAGTCACCTAGTGCAG” it is 3660 fluorescence intensity (a.u.); for “AAAACATTTTCTCGACCTTGTTGCTGAGCTCCACCCGTAGCGGAGTCACCTAGTGCAG” it is 3840 fluorescence intensity (a.u.).
The figure for “TTCTGTGCTGTTCTTGACTGACCTCTCATCATTCAGAGCACGGAGTCACCTAGTGCAG” is 3420 fluorescence intensity (a.u.).
With “TTCACAACACTTGCATGAACTCAGGTGTCAATGGTAAGGTCGGAGTCACCTAGTGCAG”, the binding signal is 3560 fluorescence intensity (a.u.).
For “CGAAACAGCTGGAACATTTTGCGCTCCCTCCAGCCCACCCCGGAGTCACCTAGTGCAG”, the binding signal was 4400 fluorescence intensity (a.u.).
For the sequence “TTCTTCTTCATCCAGCTGCATGCCACGGACTGCAATCTATCGGAGTCACCTAGTGCAG”, the binding signal was 4090 fluorescence intensity (a.u.).
On to “TGCAGCGCCCTCAGCGTTTTGCGCTGCCGTGGCCATCACGCGGAGTCACCTAGTGCAG”, for which the binding signal was 4300 fluorescence intensity (a.u.).
As to “TGTGACGAACGCATGCATGCACGCGCGCGTACGTGGTGGGCGGAGTCACCTAGTGCAG”, the binding signal was 5150 fluorescence intensity (a.u.).
“GACATCAAAGTAAACAGGCCCGAAGTTTAGCTATCCAAATCGGAGTCACCTAGTGCAG”: the binding signal is 21600 fluorescence intensity (a.u.).
